This test has as its target T1, Heme oxygenase 1 (human (endogenous in PC3)) (UniProt P09601).
T1 sequence: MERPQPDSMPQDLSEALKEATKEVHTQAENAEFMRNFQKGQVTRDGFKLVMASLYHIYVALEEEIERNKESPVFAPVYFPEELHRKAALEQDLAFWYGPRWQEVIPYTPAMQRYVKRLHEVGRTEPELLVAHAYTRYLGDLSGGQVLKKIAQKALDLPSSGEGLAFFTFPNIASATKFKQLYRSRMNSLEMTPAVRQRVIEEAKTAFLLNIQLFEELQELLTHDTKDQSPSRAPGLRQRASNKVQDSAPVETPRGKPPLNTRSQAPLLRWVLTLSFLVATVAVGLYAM
In words: co-IP; PC3 cells treated with Hemin (80 uM, 24 h) or PBS; nuclear and cytoplasmic extracts; 500 ug protein incubated overnight at 4 C with 8 ug anti-HO-1 antibody (IgG as negative control), Protein G agarose beads 3 h at 4 C; immunoblot with anti-GR and anti-HO-1; lysis buffer 20 mM Tris HCl pH 8, 137 mM NaCl, 10% glycerol, 1% Triton X-100, EDTA.

Chains of the proteins cited; added tags and fusions are not shown.
UniProt P04150: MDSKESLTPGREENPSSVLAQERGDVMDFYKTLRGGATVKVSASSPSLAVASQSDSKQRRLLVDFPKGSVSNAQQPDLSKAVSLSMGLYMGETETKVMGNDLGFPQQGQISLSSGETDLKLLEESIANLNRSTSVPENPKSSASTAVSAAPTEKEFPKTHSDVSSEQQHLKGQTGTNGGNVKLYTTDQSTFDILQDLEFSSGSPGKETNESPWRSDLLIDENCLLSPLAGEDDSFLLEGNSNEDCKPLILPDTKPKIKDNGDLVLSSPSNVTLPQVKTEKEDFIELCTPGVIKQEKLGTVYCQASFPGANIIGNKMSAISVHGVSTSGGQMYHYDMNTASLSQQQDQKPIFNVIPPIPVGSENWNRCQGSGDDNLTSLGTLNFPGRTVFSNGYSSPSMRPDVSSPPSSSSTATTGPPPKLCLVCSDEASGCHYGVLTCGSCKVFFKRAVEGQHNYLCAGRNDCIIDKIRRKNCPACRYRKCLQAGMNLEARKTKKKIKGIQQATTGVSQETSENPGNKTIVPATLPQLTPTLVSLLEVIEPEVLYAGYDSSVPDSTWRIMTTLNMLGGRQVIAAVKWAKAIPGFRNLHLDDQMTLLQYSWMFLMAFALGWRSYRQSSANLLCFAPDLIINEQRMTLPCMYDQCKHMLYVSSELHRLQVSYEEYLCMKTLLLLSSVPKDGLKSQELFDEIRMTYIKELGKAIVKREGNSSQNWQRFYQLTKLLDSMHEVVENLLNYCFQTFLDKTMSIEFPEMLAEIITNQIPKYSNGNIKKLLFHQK

These are yes or no findings as the source states them, for the method shown. In cells and extracts the contact can be indirect. Some entries that bind do so weakly or less than the wild type.

With “Glucocorticoid receptor (from UniProt P04150 1-777)”, the binding entry was “binds”.
